In patent US6660837:
No constants are given. Whether binding was seen depends on the method and setting. Binding seen in cells or lysates may run through a third protein. Some entries that bind do so weakly or less than the wild type. For some of these results: Tags and fused reporters may be left off the sequences shown.

Chains of the proteins cited; added tags and fusions are not shown. Lines headed by an entry give the natural chain unless they say otherwise; changes in a name come on top. A line that says so, or that is headed by a name, gives the form on record, which may keep a tag or linker. Residues count along the entry.
UniProt P12814, residues 479-600: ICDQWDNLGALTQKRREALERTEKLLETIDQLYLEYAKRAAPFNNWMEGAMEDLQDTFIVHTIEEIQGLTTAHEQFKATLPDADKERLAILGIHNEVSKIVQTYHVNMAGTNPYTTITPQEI
UniProt P35609: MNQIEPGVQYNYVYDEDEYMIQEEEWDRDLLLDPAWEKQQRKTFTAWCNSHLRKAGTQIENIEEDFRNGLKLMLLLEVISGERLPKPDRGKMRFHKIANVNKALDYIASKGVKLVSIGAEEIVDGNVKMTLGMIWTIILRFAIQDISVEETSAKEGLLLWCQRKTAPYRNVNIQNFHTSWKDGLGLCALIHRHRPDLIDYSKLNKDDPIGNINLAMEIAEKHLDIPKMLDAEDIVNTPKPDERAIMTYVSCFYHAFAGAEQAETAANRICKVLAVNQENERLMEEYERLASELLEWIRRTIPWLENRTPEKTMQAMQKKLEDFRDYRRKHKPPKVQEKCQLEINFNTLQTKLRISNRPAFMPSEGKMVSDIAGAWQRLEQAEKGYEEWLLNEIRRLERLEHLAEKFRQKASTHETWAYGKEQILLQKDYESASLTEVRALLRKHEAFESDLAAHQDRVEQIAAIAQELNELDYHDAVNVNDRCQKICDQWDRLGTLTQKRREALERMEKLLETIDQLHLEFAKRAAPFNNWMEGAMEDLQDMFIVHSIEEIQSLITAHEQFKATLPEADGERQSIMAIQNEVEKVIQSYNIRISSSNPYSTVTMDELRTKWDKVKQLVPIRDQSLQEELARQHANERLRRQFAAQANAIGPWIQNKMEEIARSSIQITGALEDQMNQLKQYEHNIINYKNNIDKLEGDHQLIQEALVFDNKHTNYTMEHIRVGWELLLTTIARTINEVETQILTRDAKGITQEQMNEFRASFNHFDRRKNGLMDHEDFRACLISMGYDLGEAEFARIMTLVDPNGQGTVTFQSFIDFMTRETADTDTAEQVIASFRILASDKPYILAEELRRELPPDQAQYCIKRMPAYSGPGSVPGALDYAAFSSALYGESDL
HA-tagged HuActSkl (amino acid sequence 333-894), pHA-Act, expressed in COS7 cells: residues 333-894 of P35609
GST-HuActSkl (423-653): residues 423-653 of P35609
GST-HuActSkl (486-607), spectrin-like repeat 3 of HuActSkl: residues 486-607 of P35609
GST-HuActSkl (653-837): residues 653-837 of P35609

How the values were obtained:
[1] = biological target: GST-PKN-N (GST fused to the amino-terminal region of PKN, amino acid sequence 1-540) (human) (UniProt Q16512); assay: GST pull-down of 35S-labeled full-length HuActSkl with GST-PKNN1, no PI4,5P2
[2] = biological target: GST-PKN-N (GST fused to the amino-terminal region of PKN, amino acid sequence 1-540) (human) (UniProt Q16512); assay: GST pull-down of 35S-labeled full-length HuActSkl with GST-PKNN1, 10 µM PI4,5P2
[3] = biological target: GST-HuActNm (amino acid sequence 479-600), spectrin-like repeat 3 of HuActNm (human) (UniProt P12814); assay: GST pull-down of 35S-labeled in vitro translated PKNN2
[4] = biological target: T1, GST-NFMhr (GST fused to the head-rod domain, amino acid sequence 1-411, of human NFM) (human) (UniProt P07197); assay: as above
T1 sequence (looked up): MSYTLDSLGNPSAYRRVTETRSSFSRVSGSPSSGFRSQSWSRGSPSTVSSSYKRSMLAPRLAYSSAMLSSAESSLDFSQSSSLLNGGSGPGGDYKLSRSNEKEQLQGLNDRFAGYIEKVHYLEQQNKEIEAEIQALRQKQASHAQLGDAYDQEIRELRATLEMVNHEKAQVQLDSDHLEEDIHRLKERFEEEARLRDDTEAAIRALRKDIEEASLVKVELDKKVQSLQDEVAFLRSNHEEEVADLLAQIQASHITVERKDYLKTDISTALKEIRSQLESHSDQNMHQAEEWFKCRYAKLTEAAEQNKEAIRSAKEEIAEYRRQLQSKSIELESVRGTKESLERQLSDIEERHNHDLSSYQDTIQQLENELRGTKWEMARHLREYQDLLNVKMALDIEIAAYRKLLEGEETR

[5] = biological target: GST-HuActNm (amino acid sequence 479-600), spectrin-like repeat 3 of HuActNm (human) (UniProt P12814); assay: GST pull-down of 35S-labeled PKNN2 (FIG. 46, repeat 3 of HuActNm)
[6] = biological target: GST-HuActSkl (486-607), spectrin-like repeat 3 of HuActSkl (human) (UniProt P35609); assay: GST pull-down of 35S-labeled PKNN2 (FIG. 46, repeat 3 of HuActSkl)
[7] = biological target: T2, GST-NFL#21 (GST fused to the amino acid sequence 1-349 of human NFL, head-rod domain) (human) (UniProt P07196); assay: GST pull-down of 35S-labeled in vitro translated protein, autoradiography
T2 sequence (looked up): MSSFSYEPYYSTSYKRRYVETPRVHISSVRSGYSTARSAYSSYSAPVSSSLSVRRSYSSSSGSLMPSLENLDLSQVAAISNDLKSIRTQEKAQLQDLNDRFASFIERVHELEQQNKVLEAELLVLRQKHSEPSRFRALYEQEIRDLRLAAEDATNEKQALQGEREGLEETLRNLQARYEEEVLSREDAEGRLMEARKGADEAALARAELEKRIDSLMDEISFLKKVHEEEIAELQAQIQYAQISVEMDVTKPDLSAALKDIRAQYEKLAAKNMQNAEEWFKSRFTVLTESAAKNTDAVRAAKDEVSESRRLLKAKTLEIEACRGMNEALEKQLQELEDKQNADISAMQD

[8] = biological target: GST-HuActSkl (423-653) (human) (UniProt P35609); assay: GST pull-down of 35S-labeled protein; washes with 0.5% Triton X-100/0.5 M NaCl
[9] = biological target: GST-HuActSkl (486-607), spectrin-like repeat 3 of HuActSkl (human) (UniProt P35609); assay: as above
[10] = biological target: GST-HuActSkl (653-837) (human) (UniProt P35609); assay: as above
[11] = biological target: GST-HuActSkl (423-653) (human) (UniProt P35609); assay: GST pull-down of 35S-labeled protein (lane 18)
[12] = biological target: GST-HuActSkl (653-837) (human) (UniProt P35609); assay: GST pull-down of 35S-labeled protein (lane 19)
[13] = biological target: HA-tagged HuActSkl (amino acid sequence 333-894), pHA-Act, expressed in COS7 cells (human) (UniProt P35609); assay: co-immunoprecipitation with 12CA5 from co-transfected COS7 cells, immunoblot with αC6

Measured: binding

35S-labeled in vitro translated full-length HuActSkl (from UniProt P35609 1-894)
binds: [1] | [2]

PKNN2 (N-terminal region of PKN, amino acid sequence 1-474), 35S-labeled, in vitro translated (from UniProt Q16512 1-474)
not listed: [1] | [2] | [11] | [12] | [13]
binds: all other assays above

PKNΔBal (amino acid sequence 136-474 of PKN), 35S-labeled, in vitro translated (from UniProt Q16512 136-474)
binds: [11] | [12]

full-length human PKN expressed from pMhPKN3 in COS7 cells (from UniProt Q16512 1-942) (enzyme)
binds: [13]
